Measured values as given in PubChem BioAssay AID256 (DTP/NCI, 2004).
The list is a part of this screen's results and no random one: it is rich in T/C values a quarter to a half above the control, in often repeated tests (any T/C) and in doses without a T/C. Other doses and runs of a compound stand elsewhere. T/C: endpoint of the treated group in % of that of the vehicle group. Some entries give survivors of the animals treated and no T/C: the source holds a T/C of zero for them, seemingly a mark for toxic or unscored doses. Some survivor counts are full or nearly so, which does not show that the dose was tolerated: survival well below the control is almost never listed, so the zero probably covers shortened survival too. Survivors were counted at the toxicity check, usually on the fifth day, unless a day is given; later deaths do not show. Schedules are NCI's codes, taken here to give the interval after Q, in days (D) or hours (H), and the number of doses after X. Some entries were tested several times; the values are given in rising order. Where survival is the endpoint, the PubChem record calls one and a half times the control and up active, and a quarter to a half above the control has no call in these data; cut-offs in other NCI protocols can differ. Additions like (4×) say how often a value occurs here. Some T/C values are followed by the survivors on the day toxicity was checked, most often the fifth; without a count, all were alive then.

Test system: CD2F1 mice, L1210 leukemia ip, survival T/C
Assay: NCI In Vivo Anticancer Drug Screen. Data for tumor model L1210 Leukemia (intraperitoneal) in CD2F1 (CDF1) mice
Conditions: higher T/C = longer survival
Procedure, shortened: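 Mice carrying a transplanted tumor received test compound or vehicle alone. The value is the measurement in the treated group divided by that in the vehicle-treated control group.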

[1] = T/C endpoint: mean survival time, dose: 200.0 mg/kg/injection, schedule: Q01DX009 (ip), vehicle: saline with Tween-80
[2] = T/C endpoint: mean survival time, dose: 400.0 mg/kg/injection, schedule: Q01DX009 (ip), vehicle: saline with Tween-80

SMILES: NC(Cc1cc(I)c(Oc2cc(I)c(O)c(I)c2)c(I)c1)C(=O)O (stereo not given)
- survivor count (T/C endpoint: mean survival time, dose: 0.5 mg/kg/injection, schedule: Q01DX009 (ip), vehicle: saline): 6 of 6
- T/C (T/C endpoint: mean survival time, dose: 4.0 mg/kg/injection, schedule: Q01DX009 (ip), vehicle: saline, evaluated on day 5): 89 and 92 % of control
- T/C (T/C endpoint: mean survival time, dose: 4.0 mg/kg/injection, schedule: Q01DX009 (ip), vehicle: saline, evaluated on day 30): 87 and 98 % of control
- survivor count (T/C endpoint: mean survival time, dose: 16.0 mg/kg/injection, schedule: Q01DX009 (ip), vehicle: saline): 6 of 6
- survivor count (T/C endpoint: mean survival time, dose: 32.0 mg/kg/injection, schedule: Q01DX009 (ip), vehicle: saline): 6 of 6
- survivor count (T/C endpoint: mean survival time, dose: 64.0 mg/kg/injection, schedule: Q01DX009 (ip), vehicle: saline): 6 of 6
- survivor count (T/C endpoint: mean survival time, dose: 128.0 mg/kg/injection, schedule: Q01DX009 (ip), vehicle: saline): 6 of 6
- T/C (T/C endpoint: median survival time, dose: 0.63 mg/kg/injection, schedule: Q01DX009 (ip), vehicle: saline, evaluated on day 5): 80, 87 (2×), 88 % of control
- T/C (T/C endpoint: median survival time, dose: 0.63 mg/kg/injection, schedule: Q01DX009 (ip), vehicle: saline, evaluated on day 6): 85, 92, 93 % of control
- T/C (T/C endpoint: median survival time, dose: 2.5 mg/kg/injection, schedule: Q01DX009 (ip), vehicle: saline, evaluated on day 5): 79, 85, 86, 101 % of control
- T/C (T/C endpoint: median survival time, dose: 2.5 mg/kg/injection, schedule: Q01DX009 (ip), vehicle: saline, evaluated on day 6): 85, 91, 94 % of control
- T/C (T/C endpoint: median survival time, dose: 10.0 mg/kg/injection, schedule: Q01DX009 (ip), vehicle: saline, evaluated on day 5): 70 [4 of 5 alive], 84, 96, 105 % of control
- T/C (T/C endpoint: median survival time, dose: 10.0 mg/kg/injection, schedule: Q01DX009 (ip), vehicle: saline, evaluated on day 6): 85, 89, 92 % of control
- T/C (T/C endpoint: median survival time, dose: 40.0 mg/kg/injection, schedule: Q01DX009 (ip), vehicle: saline, evaluated on day 5): 76, 80, 86, 90 % of control
- T/C (T/C endpoint: median survival time, dose: 40.0 mg/kg/injection, schedule: Q01DX009 (ip), vehicle: saline, evaluated on day 6): 86, 91, 92 % of control

SMILES: C[N+](C)(C)CCOC(=O)c1cc(CBr)cc(CBr)c1
- survivor count (T/C endpoint: mean survival time, dose: 200.0 mg/kg/injection, schedule: Q04DX003 (ip), vehicle: saline): 0 of 6
- survivor count (T/C endpoint: mean survival time, dose: 400.0 mg/kg/injection, schedule: Q04DX003 (ip), vehicle: saline): 0 of 6

SMILES: O=C1C(Cl)(Cl)C(=O)C(Cl)(Cl)C(=O)C1(Cl)Cl
- survivor count (T/C endpoint: mean survival time, dose: 100.0 mg/kg/injection, schedule: Q04DX002 (ip), vehicle: saline with Tween-80): 2 of 3

SMILES: Cn1ccc(=Nc2ccc(NC(=O)c3ccc(N=c4ccn(C)c5ccc([N+](=O)[O-])cc45)cc3[N+](=O)[O-])cc2)cc1
- T/C (T/C endpoint: mean survival time, dose: 50.0 mg/kg/injection, schedule: Q01DX009 (ip), vehicle: saline with Tween-80): 127 % of control
- T/C (T/C endpoint: mean survival time, dose: 100.0 mg/kg/injection, schedule: Q01DX009 (ip), vehicle: saline with Tween-80): 125 % of control
- T/C [1]: 145 [4 of 5 alive] and 147 % of control
- T/C [2]: 139 % of control

SMILES: Cc1cccc(N=NN(C)C)c1
- survivor count (T/C endpoint: mean survival time, dose: 100.0 mg/kg/injection, schedule: Q01DX009 (ip), vehicle: Klucel (hydroxypropylcellulose) (HPC)): 1 of 6
- survivor count (T/C endpoint: mean survival time, dose: 150.0 mg/kg/injection, schedule: Q01DX001 (ip), vehicle: saline): 3 of 6
- survivor count (T/C endpoint: mean survival time, dose: 300.0 mg/kg/injection, schedule: Q01DX001 (ip), vehicle: saline): 1 of 6

SMILES: ClCC(Cl)CN(Cc1ccccc1)Cc1ccccc1 (stereo not given)
- survivor count [2]: 2 of 6

SMILES: C[N+](C)=CN1c2ccccc2Sc2ccccc21
- survivor count [2]: 2 of 6

SMILES: CSC(SC)=C(C#N)C#N
- survivor count (T/C endpoint: mean survival time, dose: 100.0 mg/kg/injection, schedule: Q04DX002 (ip), vehicle: saline): 3 of 6

SMILES: O=C(Nc1ccccc1C(=O)O)c1cc([N+](=O)[O-])cc([N+](=O)[O-])c1
- survivor count [1]: 3 of 6
- survivor count [2]: 0 of 6 and 5 of 10
